From paper PMC12767855 come the findings set out here.

By UniProt entry, the sequences of proteins in these tests, tags left out.
UniProt Q61142: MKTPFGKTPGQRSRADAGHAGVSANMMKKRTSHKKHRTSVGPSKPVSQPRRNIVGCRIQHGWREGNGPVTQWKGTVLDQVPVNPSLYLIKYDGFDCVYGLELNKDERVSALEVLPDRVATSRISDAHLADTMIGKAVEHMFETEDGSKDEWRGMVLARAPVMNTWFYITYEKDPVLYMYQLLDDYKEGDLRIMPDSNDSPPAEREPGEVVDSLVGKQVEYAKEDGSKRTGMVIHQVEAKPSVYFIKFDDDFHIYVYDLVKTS
UniProt A2AKX3: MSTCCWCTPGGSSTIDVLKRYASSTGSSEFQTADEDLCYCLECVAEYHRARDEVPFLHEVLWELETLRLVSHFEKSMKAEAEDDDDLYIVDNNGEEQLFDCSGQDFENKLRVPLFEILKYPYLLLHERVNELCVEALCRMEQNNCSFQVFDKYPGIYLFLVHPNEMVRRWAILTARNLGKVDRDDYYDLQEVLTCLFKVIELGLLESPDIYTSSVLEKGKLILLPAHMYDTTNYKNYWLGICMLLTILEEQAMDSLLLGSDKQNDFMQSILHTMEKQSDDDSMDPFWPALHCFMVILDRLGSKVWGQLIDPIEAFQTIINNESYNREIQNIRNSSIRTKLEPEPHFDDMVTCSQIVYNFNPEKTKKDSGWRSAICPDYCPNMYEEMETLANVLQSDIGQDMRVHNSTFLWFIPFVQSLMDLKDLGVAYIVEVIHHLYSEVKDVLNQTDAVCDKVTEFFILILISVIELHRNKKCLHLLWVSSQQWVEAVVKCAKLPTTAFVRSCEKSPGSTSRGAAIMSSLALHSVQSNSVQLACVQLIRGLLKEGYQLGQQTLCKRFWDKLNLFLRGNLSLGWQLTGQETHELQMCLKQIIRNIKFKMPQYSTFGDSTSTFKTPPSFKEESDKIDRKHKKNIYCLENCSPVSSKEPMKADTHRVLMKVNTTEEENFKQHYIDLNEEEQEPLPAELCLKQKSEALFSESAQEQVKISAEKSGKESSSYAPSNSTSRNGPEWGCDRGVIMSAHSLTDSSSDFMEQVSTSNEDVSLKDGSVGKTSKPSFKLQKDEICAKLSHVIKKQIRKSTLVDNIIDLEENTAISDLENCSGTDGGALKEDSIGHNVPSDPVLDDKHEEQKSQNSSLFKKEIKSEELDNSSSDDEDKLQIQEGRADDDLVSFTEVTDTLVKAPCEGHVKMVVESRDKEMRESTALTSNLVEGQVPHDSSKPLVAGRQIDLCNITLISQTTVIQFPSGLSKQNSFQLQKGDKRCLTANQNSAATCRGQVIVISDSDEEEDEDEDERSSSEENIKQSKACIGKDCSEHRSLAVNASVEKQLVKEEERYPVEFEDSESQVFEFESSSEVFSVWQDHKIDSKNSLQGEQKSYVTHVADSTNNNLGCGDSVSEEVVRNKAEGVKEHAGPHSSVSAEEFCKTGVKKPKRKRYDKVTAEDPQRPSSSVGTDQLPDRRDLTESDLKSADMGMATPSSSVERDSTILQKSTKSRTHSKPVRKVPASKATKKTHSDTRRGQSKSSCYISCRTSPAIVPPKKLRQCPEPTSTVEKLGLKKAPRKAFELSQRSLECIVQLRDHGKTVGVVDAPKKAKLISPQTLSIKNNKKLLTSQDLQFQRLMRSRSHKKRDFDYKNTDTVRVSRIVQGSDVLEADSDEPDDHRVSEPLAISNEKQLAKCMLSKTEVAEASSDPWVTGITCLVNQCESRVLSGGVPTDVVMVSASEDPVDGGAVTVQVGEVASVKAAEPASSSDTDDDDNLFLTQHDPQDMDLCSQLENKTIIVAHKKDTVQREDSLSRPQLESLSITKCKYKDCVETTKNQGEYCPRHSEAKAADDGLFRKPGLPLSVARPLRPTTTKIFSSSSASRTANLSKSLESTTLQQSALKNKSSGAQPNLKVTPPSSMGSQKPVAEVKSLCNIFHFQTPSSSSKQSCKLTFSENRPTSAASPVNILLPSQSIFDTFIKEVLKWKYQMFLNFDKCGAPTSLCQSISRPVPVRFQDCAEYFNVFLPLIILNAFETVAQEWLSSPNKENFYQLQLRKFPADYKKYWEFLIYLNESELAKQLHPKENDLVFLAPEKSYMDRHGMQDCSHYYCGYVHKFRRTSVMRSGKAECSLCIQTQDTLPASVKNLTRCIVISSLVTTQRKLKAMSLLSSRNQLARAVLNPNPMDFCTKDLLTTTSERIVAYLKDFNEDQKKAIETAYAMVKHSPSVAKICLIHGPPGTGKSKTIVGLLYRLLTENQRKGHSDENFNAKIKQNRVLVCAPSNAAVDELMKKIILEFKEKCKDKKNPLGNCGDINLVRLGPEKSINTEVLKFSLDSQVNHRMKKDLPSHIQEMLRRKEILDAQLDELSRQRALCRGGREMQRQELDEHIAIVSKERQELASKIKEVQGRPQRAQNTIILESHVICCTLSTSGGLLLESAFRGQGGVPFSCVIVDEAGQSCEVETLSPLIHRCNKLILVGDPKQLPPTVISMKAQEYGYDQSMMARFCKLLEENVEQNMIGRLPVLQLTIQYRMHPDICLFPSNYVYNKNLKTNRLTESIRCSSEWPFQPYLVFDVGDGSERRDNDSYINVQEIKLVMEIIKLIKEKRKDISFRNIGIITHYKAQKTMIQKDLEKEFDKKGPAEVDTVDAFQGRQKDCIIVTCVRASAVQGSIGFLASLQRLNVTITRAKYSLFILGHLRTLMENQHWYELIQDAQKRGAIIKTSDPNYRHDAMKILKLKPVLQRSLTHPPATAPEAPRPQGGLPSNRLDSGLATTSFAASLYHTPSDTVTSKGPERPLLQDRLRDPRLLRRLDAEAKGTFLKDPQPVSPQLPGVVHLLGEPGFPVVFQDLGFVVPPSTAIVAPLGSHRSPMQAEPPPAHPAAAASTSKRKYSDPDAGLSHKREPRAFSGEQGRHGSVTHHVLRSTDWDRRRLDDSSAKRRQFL
UniProt Q8K2F0: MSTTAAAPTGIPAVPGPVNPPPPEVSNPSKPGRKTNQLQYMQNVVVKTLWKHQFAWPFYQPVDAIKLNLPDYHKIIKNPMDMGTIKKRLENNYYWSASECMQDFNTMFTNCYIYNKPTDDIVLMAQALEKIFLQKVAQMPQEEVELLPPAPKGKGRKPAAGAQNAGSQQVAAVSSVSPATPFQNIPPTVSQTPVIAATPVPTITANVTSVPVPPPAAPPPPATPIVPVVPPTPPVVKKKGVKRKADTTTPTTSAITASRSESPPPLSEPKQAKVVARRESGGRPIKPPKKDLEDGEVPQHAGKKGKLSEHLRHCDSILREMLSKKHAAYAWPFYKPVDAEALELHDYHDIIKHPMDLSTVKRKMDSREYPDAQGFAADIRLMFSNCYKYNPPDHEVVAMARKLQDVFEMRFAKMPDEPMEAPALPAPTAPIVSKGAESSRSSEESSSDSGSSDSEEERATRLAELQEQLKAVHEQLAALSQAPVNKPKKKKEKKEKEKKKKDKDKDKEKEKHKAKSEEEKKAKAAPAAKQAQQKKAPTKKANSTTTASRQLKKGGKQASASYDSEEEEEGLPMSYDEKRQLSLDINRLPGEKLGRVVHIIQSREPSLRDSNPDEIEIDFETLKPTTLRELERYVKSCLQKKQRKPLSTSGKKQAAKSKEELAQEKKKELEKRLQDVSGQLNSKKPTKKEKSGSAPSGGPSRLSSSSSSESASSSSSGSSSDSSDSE
UniProt Q08943: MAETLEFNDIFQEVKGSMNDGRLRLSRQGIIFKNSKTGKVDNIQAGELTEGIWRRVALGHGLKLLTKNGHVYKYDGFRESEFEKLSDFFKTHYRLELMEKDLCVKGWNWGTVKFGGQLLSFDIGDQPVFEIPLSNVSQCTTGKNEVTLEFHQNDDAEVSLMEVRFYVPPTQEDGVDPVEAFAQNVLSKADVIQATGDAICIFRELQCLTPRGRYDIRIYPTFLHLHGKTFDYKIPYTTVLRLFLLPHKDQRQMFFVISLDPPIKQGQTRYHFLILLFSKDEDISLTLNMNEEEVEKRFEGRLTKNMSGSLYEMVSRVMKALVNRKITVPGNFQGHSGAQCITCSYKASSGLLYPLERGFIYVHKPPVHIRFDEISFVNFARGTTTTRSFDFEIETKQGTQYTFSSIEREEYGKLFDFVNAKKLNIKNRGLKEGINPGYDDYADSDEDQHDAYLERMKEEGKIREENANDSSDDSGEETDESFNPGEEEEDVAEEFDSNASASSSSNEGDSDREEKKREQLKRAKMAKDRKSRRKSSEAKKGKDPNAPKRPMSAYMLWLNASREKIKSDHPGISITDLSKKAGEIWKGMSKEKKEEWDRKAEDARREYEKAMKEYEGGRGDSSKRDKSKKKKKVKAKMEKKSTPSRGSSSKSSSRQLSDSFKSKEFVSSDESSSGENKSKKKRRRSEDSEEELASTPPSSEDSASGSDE
UniProt Q6PDQ2: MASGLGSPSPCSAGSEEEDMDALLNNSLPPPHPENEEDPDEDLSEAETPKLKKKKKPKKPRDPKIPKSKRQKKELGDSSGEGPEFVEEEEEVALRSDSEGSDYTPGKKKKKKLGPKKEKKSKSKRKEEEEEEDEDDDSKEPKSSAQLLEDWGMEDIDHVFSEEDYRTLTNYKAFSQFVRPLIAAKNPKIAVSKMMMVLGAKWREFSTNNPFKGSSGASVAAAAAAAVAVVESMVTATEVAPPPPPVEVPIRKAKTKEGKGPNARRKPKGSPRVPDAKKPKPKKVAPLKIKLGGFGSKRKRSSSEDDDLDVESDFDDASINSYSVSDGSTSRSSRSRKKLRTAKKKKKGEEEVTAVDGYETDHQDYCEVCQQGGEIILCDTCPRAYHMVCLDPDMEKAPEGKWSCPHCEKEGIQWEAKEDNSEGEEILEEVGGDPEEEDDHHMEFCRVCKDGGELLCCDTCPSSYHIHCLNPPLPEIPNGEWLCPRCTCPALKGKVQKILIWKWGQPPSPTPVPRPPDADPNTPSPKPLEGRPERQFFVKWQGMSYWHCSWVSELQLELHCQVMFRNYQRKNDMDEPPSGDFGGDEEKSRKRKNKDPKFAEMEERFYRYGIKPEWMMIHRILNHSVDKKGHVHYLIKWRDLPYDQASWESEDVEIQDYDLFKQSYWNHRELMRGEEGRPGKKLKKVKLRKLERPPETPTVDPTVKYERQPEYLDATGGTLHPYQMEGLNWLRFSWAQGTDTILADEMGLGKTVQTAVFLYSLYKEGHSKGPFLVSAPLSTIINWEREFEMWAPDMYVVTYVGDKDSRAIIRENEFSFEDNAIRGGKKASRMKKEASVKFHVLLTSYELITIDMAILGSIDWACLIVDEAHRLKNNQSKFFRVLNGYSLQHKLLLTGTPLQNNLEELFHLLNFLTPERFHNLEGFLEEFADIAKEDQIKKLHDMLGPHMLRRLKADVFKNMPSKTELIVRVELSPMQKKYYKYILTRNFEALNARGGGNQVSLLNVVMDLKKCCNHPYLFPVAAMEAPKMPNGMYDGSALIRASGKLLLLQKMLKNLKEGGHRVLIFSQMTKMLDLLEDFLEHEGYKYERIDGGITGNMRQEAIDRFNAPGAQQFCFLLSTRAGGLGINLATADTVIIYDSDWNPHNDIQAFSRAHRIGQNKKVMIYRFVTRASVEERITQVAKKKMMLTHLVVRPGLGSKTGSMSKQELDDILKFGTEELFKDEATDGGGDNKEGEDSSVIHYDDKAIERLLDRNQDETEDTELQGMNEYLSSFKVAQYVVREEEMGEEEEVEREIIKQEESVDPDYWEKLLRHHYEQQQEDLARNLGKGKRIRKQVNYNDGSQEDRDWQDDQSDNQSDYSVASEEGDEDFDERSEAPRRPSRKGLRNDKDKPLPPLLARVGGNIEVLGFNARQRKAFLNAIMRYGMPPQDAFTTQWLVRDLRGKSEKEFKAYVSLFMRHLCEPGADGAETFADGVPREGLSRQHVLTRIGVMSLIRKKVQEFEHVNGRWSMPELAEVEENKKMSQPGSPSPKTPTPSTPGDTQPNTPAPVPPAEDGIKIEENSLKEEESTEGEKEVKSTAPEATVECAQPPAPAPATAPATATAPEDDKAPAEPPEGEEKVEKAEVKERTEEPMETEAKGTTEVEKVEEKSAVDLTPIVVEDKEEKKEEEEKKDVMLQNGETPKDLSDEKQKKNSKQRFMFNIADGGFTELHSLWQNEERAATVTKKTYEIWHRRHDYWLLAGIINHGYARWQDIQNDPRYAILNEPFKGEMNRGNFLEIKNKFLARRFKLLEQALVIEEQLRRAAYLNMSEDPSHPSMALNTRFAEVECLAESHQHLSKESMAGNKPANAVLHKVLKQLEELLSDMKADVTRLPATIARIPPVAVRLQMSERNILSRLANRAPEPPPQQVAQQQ

The experiment deals with T1, 3xFlag-tagged endogenous Par3L (Par3-like) (mouse) (UniProt Q9CSB4).
T1 sequence: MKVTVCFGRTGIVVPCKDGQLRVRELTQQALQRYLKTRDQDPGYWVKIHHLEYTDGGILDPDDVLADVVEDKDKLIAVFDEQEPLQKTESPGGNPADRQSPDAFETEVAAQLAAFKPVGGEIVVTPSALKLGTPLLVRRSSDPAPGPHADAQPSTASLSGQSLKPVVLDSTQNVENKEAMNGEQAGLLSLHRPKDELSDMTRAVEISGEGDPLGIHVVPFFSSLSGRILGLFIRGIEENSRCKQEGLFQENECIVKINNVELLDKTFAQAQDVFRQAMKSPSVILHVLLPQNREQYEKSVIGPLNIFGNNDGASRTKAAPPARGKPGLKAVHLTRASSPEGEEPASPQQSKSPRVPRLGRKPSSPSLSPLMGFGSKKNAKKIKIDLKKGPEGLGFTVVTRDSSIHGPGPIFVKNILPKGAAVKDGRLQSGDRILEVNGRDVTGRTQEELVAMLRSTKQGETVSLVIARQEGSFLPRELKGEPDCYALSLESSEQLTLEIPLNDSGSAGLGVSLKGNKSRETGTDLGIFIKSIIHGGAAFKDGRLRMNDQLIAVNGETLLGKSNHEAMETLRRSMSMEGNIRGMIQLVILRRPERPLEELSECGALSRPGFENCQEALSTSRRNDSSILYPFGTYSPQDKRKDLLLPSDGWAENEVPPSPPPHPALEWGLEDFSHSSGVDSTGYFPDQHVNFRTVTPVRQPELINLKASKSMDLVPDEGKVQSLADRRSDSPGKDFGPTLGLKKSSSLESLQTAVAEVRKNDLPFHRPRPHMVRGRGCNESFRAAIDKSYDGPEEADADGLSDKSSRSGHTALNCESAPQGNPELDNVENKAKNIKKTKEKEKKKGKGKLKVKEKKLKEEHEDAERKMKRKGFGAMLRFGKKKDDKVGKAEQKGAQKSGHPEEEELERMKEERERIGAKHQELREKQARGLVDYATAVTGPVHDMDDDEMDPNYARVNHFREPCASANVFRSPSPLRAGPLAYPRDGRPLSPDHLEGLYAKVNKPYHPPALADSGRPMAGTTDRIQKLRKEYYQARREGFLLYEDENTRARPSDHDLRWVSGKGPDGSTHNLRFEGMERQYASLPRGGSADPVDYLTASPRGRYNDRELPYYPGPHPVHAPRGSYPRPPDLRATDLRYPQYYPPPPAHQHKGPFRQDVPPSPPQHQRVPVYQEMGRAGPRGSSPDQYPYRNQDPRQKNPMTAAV
As to the kind of experiment: affinity purification with mass spectrometry; anti-Flag M2 magnetic beads on lysates of kidneys and intestine (ground frozen tissue) and of pancreatic epithelial cells of Par3L^Flag/+ mice, WT mice as controls; 2 h at 4 °C; IP lysis buffer 25 mM Hepes pH 7.4, 150 mM NaCl, 0.5% TritonX-100; washes with 450 mM NaCl; on-bead trypsin digest; hits present in at least two of three tagged mice and absent in all controls; the tissue of a hit is told in the row's printed words.

These are yes or no findings as the source states them, for the method shown. Binding seen in cells or lysates may run through a third protein. These calls come from enrichment with a bait or labelling near it, and not all partners need be listed. Sequences can lack the tags named with a protein.

For Spin1 (from UniProt Q61142 1-262), the binding entry is given as “binds”.

As to Setx (from UniProt A2AKX3 1-2646), the binding result is given as “binds”.

For the molecule Brd3 (from UniProt Q8K2F0 1-726), the binding result is “binds”.

For the molecule Ssrp1 (from UniProt Q08943 1-708), the binding result is “binds”.

As for Chd4 (from UniProt Q6PDQ2 1-1915), the binding result was “binds”.

B1: Fip1L1 (endogenous, mouse tissue) (protein, UniProt Q9D824 1-581)
chain: MSAGEVERLVELSGGTGGDEEEEWLYGGPWDVHVHSDLAKDLDENEVERPEEENASANPPSGIEEEAAENGVAKPKVTETEDDSDSDSDDDEDDVHVTIGDIKTGAPQYGSYGTAPVNLNIKAGGRVYGNTGTKVKGVDLDAPGSINGVPLLEVDLDSFEDKPWRKPGADLSDYFNYGFNEDTWKAYCEKQKRIRMGLEVIPVTSTTNKITVQQGRTGNSEKEAALPSTKAEFTSPPSLFKTGLPPSRNSTSSQSQTSTASRKASSSVGKWQDRYGRAESPDLRRLPGAIDVIGQTITISRVEGRRRANENSNIQVLSDRSATEVDNNFSKPPPFFPPGAPPTHLPPPPFLPPPPTVSTAPPLIPPPGIPITVPPPGFPPPPGAPPPSLIPTIESGHSSGYDSRSARAFPYGNVAFPHLTSSAPSWPSLVDTTKQWDYYARREKDRDRDRERDRDRERERDRDRERERTRERERERDHSPTPSVFNSDEERYRYREYAERGYERHRASREKEERHRERRHREKEETRHKSSRSNSRRRHESEEGDSHRRHKHKKSKRSKEGKEAGSEPVPEQESTEAAPAE
With B1, the binding entry is “binds”.

B2: Luzp1 (protein, UniProt Q8R4U7 1-1068)
chain: MAELTNYKDAASNRHLRFKLQSLSRRLDELEEATKNLQRAEDELLDLQDKVIQAEGSDSSTLAEIEVLRQRVLKIEGKDEEIKRAEDLCHTMKEKLEEEENLTRELKSEIERLQKRMVDLEKLEEALSRSKNECSQLCLSLNEERNLTKKISSELEMLRVKVKELESSEDRLDKTEQSLVSELEKLKSLTLSFVNERKYLNEKEKENEKIIKELTQKLEQNKKMNRDHMRNASTFLERNDLRIEDGISSTLSSKESKRKGSLDYLKQVENETRDKSENEKNRNQEDNKVKDLNQEIEKLKTQIKHFESLEEELKKMRAKNNDLQDNYLTELNRNRSLASQLEEIKLQVRKQKELGNGDIEGEDAFLLGRGRHERTKLKGHGSEASVSKHTSRELSPQHKRERLRNREFALSNEHYSLSSKQASSPVFTNKRAAKASNMGMGTDSGTQETKRTEDRFAPGSSHSEGKRGREQPSVLSRYPPAAQEHTKVWKGAPKPGTESGLKGKVEKTTRTFSDSTHVSVPNDIVGKGDKTSDLSSEAHCGKRGQVPGHASQGTQAVESSCSKAIGALSSSQKASSEGLSKGKKTANGLAADANFSNSKAPILSKYPYSSRSQENILQGFSLPNKEGVDQPVAVVMEDSSQHEALRCRVIKSSGREKPDSDDDLDIESFVTAKLVNTTITPEPEPKPQPNSREKVKSRGGTRTALFENDKNAAIENDSVKPTRPSSNAIEFPDANCAGVKNQRPFSPREALRSRAIIKPVIIDKDVKKIMGGSGTEVVLEKQKSTSKSVTSKVTSSITIYPSDSSGPRAVPSEAPRERHTSTSNIQVGPPELTAISNHVSSPLELSIHKHDITLQLTEAERVGDGSPKNRAEMVVSRSSILIKPSESVEKNSHVPPAETIRWKSHSASSDSRHITVRNAWKSKRDLKCSEDPPTGIGRNMEATNAYTQRPCTDFLELEQPRSQPSEQGARRVGNSGDAPELSPRRTQSSLTASEVLTRRDRMGGAITAASCNHSSSMEEGEDSTFVTSRRIHNPLEHSELPGKQGLPEPEPVWTEERLHPAKPYAEED
Take B2: the binding entry is “binds”.

B3: Retn (protein, UniProt Q99P87 21-114)
chain: SSMPLCPIDEAIDKKIKQDFNSLFPNAIKNIGLNCWTVSSRGKLASCPEGTAVLSCSCGSACGSWDIREEKVCHCQCARIDWTAARCCKLQVAS
Regarding B3, the binding result is “binds”.

B4: Mbnl2 (endogenous, mouse tissue) (protein, UniProt Q8C181 1-373)
chain: MALNVAPVRDTKWLTLEVCRQYQRGTCSRSDEECKFAHPPKSCQVENGRVIACFDSLKGRCSRENCKYLHPPTHLKTQLEINGRNNLIQQKTAAAMLAQQMQFMFPGTPLHPVPTFPVGPTIGTNAAISFAPYLAPVTPGVGLVPTEVLPTTPVIVPGSPPVTVPGSTATQKLLRTDKLEVCREFQRGNCARGETDCRFAHPADSTMIDTNDNTVTVCMDYIKGRCMREKCKYFHPPAHLQAKIKAAQHQANQAAVAAQAAAAAATVMTQSTAKALKRPLEATVDLAFPPGALHPLPKRQALEKSNGASTVFNPSVLHYQQALTSAQLQQHTAFIPTVPMMHSATSATVSAATTPATSVPFAATATANQIILK
On to B4, for which the binding entry was “binds”.

B5: Igj (protein, UniProt P01592 22-159)
chain: GDDEATILADNKCMCTRVTSRIIPSTEDPNEDIVERNIRIVVPLNNRENISDPTSPLRRNFVYHLSDVCKKCDPVEVELEDQVVTATQSNICNEDDGVPETCYMYDRNKCYTTMVPLRYHGETKMVQAALTPDSCYPD
As to B5, the binding entry is listed as “binds”.

B6: Cpsf7 (endogenous, mouse tissue) (protein, UniProt Q8BTV2 1-471)
chain: MSEGVDLIDIYADEEFNQDSEFNNTDQIDLYDDVLTAASQPSDDRSSSTEPPPPVRQEPAPKPNNKTPAILYTYSGLRSRRAAVYVGSFSWWTTDQQLIQVIRSIGVYDVVELKFAENRANGQSKGYAEVVVASENSVHKLLELLPGKVLNGEKVDVRPATRQNLSQFEAQARKRECVRVPRGGIPPRAHSRDSSDSADGRATPSENLVPSSARVDKPPSVLPYFNRPPSALPLMGLPPPPIPPPPPLSSSFGVPPPPPGIHYQHLMPPPPRLPPHLAVPPPGAIPPALHLNPAFFPPPNATVGPPPDTYMKASTPYNHHGSRDSGPPPSTVSEAEFEEIMKRNRAISSSAISKAVSGASAGDYSDAIETLLTAIAVIKQSRVANDERCRVLISSLKDCLHGIEAKSYSVGASGSSSRKRHRSRERSPSRSRESSRRHRDLLHNEDRHDDYFQERNREHERHRDRERDRHH
Consider B6, for which the binding result is “binds”.

B7: Copb2 (protein, UniProt O55029 1-905)
chain: MPLRLDIKRKLTARSDRVKSVDLHPTEPWMLASLYNGSVCVWNHETQTLVKTFEVCDLPVRAAKFVARKNWVVTGADDMQIRVFNYNTLERVHMFEAHSDYIRCIAVHPTQPFILTSSDDMLIKLWDWDKKWSCSQVFEGHTHYVMQIVINPKDNNQFASASLDRTIKVWQLGSSSPNFTLEGHEKGVNCIDYYSGGDKPYLISGADDRLVKIWDYQNKTCVQTLEGHAQNVSCASFHPELPIIITGSEDGTVRIWHSSTYRLESTLNYGMERVWCVASLRGSNNVALGYDEGSIIVKLGREEPAMSMDANGKIIWAKHSEVQQANLKAMGDTEIKDGERLPLAVKDMGSCEIYPQTIQHNPNGRFVVVCGDGEYIIYTAMALRNKSFGSAQEFAWAHDSSEYAIRESNSIVKIFKNFKEKKSFKPDFGAESIYGGFLLGVRSVNGLAFYDWENTELIRRIEIQPKHIFWSDSGELVCIATEESFFILKYLSEKVLAAQETHEGVTEDGIEDAFEVLGEIQEIVKTGLWVGDCFIYTSSVNRLNYYVGGEIVTIAHLDRTMYLLGYIPKDNRLYLGDKELNIVSYSLLVSVLEYQTAVMRRDFSMADKVLPTIPKEQRTRVAHFLEKQGFKQQALTVSTDPEHRFELALQLGELKIAYQLAVEAESEQKWKQLAELAISKCQFSLAQECLHHAQDYGGLLLLATASGNASMVNKLAEGAERDGKNNVAFMSYFLQGKLDACLELLIRTGRLPEAAFLARTYLPSQVSRVVKLWRENLSKVNQKAAESLADPTEYENLFPGLKEAFVVEEWVKETHADLWPAKQYPLVTPNEERNVMEEAKGFQPSRPTAQQEPDGKPASSPVIMASQTTHKEEKSLLELEVDLDNLELEDIDTTDINLDEDILDD
As for B7, the binding entry is “binds”.

B8: Copz2 (protein, UniProt Q9JHH9 1-205)
chain: MQRPEAWPRPHPGEGASAAQAGGAAPPTRATEQREPSLYTIKAVFILDNDGRRLLAKYYDDTFPSVKEQMVFEKNVFNKTSRTESEIAFLGGMTIVYKSSIDIFLYVVGSSSENELMLMSVLACLFDSLSHILRKNVEKRWLLENMDGAFLVLDETVDGGVILESDPQQVIQKVNFRTDDSGLTEQSVAQVLQSAKEQIKWSLLK
With B8, the binding entry is recorded as “binds”.
